Experimental data published in the supplement of paper PMC10849652.
Some of the results follow.

Protein sequences, listed by entry. Tags and fused reporters are not part of them. Lines headed by an entry give the natural chain unless they say otherwise; changes in a name come on top.
UniProt Q9BX40: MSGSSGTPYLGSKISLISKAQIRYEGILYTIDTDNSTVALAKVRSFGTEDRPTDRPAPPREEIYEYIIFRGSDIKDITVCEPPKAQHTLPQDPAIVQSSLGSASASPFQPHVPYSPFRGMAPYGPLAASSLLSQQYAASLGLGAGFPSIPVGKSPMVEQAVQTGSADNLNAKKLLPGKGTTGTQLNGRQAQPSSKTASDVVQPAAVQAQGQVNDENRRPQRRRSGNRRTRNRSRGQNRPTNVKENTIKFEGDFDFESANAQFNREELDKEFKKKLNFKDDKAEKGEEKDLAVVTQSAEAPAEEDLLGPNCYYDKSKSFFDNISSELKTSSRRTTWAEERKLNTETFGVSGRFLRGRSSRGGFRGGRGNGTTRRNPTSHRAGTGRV
UniProt Q5T3J3: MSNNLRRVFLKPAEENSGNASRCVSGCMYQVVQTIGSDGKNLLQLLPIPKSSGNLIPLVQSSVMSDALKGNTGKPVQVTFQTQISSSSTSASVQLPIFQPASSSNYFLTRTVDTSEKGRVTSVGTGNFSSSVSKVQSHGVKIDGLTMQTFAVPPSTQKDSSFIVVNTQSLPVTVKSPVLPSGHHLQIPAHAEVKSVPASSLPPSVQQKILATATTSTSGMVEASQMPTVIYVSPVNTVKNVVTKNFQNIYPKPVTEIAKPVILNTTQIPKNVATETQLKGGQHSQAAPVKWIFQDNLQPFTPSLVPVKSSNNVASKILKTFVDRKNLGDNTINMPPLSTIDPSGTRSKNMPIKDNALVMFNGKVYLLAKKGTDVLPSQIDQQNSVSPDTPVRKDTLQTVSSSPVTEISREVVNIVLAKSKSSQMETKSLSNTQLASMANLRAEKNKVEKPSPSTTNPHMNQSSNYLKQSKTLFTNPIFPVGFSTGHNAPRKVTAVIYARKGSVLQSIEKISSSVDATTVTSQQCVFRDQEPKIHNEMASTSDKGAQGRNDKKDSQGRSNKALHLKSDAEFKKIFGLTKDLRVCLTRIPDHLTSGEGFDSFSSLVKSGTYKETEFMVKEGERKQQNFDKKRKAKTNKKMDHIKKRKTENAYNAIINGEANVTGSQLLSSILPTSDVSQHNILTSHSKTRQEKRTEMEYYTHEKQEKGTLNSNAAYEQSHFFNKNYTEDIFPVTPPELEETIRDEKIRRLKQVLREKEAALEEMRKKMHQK
UniProt Q7L1W4: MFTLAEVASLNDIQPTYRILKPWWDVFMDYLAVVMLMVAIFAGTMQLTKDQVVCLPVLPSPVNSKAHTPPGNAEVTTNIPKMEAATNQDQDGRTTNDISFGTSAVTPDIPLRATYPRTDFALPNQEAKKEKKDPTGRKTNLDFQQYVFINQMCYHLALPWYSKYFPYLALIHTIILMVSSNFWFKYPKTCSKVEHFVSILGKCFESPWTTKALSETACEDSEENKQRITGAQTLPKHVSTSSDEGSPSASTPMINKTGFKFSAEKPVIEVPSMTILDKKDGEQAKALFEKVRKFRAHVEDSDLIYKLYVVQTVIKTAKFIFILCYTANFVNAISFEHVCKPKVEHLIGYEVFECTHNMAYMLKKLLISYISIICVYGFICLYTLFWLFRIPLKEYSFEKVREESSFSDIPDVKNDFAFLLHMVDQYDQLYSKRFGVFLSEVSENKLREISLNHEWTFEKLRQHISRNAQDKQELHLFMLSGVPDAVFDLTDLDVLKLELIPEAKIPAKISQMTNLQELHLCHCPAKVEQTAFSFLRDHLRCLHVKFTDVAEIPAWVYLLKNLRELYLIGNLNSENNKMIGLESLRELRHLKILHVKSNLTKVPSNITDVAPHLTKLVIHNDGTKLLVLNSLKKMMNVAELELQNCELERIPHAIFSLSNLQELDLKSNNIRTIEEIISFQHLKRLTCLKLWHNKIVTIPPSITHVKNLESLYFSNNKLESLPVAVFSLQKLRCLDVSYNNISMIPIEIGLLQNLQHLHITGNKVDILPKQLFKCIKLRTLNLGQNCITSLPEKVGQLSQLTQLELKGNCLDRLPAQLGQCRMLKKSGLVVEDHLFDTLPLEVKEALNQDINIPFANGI
UniProt Q9C099: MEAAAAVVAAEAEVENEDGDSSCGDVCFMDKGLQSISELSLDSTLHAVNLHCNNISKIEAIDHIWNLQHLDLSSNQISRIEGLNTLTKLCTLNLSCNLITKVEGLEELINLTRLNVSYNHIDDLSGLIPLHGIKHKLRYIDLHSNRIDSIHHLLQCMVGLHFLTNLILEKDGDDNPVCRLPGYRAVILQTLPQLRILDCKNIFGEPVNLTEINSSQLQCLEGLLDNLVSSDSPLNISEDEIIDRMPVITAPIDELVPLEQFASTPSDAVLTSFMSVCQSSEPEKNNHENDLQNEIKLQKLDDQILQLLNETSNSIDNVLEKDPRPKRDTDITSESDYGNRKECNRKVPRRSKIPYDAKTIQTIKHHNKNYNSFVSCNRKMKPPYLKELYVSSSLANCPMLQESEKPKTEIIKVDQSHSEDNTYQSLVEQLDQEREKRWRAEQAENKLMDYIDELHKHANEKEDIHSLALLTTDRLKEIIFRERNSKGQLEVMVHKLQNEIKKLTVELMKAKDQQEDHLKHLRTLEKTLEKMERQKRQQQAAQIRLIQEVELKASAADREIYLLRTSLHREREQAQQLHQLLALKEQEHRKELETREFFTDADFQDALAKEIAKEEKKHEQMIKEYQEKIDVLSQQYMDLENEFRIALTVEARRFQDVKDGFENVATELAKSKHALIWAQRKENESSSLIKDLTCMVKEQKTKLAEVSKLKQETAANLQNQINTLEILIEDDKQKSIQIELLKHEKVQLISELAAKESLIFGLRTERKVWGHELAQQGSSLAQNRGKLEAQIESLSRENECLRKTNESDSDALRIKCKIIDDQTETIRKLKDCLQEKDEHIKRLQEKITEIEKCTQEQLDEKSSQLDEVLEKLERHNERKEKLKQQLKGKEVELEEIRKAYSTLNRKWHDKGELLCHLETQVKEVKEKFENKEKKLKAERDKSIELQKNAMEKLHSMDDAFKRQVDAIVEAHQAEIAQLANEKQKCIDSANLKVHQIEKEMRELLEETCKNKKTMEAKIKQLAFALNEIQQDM
UniProt Q6P1A2: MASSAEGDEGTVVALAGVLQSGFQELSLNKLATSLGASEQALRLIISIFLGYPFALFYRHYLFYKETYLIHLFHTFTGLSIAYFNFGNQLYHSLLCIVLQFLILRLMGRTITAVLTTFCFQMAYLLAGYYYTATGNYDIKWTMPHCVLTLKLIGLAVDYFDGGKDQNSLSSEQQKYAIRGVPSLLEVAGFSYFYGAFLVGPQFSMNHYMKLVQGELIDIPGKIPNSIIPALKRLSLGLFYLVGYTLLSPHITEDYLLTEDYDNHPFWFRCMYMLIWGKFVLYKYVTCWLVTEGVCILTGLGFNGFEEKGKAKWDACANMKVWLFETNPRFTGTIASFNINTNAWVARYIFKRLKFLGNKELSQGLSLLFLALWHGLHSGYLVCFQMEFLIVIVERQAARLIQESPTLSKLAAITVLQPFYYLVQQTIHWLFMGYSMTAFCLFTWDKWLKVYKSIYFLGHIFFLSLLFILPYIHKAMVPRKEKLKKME
UniProt Q96FE5: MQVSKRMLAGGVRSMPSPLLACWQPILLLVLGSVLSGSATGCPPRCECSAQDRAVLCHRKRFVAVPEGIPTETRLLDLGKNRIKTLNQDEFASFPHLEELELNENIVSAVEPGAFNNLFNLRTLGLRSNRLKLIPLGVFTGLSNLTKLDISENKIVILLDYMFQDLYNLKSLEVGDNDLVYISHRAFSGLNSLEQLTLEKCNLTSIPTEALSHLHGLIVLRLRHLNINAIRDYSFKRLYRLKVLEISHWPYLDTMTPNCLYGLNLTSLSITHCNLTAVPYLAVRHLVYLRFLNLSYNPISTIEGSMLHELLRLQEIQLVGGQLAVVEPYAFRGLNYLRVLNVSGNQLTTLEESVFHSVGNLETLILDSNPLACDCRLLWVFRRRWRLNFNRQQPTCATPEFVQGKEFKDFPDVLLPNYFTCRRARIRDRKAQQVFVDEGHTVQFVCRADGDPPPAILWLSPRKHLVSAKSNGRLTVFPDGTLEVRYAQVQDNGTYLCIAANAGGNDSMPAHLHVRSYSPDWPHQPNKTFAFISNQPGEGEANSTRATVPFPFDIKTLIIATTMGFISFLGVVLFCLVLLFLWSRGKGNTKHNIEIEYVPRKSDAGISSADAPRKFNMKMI
UniProt O94898: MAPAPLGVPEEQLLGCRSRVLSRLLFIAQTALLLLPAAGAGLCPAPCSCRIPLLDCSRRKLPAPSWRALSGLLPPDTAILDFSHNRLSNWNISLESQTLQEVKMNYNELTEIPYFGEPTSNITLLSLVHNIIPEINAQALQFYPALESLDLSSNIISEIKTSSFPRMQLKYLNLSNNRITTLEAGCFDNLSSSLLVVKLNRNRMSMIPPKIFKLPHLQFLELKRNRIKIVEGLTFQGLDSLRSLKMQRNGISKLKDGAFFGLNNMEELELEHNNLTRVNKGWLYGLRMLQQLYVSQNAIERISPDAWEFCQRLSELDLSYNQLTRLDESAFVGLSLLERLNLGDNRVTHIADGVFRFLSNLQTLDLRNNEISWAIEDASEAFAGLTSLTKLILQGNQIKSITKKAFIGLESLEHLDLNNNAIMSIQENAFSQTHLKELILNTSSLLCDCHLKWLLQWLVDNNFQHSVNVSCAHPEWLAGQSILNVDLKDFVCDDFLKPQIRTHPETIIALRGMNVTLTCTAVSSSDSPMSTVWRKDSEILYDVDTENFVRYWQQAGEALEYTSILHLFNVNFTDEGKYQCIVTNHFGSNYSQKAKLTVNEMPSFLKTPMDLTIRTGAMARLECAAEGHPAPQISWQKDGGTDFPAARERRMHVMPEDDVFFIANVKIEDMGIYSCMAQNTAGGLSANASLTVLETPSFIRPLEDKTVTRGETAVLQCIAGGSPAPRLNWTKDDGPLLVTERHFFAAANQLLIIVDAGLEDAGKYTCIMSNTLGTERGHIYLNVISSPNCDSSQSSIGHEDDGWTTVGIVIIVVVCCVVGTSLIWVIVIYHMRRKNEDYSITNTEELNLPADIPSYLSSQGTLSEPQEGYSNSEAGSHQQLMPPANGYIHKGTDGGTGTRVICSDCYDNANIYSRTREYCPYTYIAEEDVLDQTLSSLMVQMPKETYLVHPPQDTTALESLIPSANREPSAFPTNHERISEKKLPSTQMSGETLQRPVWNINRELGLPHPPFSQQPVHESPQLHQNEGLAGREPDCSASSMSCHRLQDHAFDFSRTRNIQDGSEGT
UniProt P83369: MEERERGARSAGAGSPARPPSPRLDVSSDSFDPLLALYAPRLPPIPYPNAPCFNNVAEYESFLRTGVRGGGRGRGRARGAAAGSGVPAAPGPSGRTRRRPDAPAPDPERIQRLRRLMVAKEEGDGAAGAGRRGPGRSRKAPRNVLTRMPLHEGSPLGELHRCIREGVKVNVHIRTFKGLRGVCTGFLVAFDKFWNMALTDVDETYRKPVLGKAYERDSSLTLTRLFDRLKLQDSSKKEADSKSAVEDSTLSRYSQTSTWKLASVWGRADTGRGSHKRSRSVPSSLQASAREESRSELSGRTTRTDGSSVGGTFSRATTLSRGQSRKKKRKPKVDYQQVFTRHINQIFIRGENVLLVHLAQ
UniProt Q6P5S2: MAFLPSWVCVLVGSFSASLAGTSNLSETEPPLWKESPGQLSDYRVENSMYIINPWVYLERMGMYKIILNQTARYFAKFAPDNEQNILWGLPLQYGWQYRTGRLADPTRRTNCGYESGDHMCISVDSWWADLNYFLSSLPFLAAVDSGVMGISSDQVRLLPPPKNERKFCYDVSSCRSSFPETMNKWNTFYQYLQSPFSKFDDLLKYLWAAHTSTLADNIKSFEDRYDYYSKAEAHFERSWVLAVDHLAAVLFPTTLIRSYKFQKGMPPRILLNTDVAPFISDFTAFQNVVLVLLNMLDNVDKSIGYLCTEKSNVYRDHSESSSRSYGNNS

What was measured:
Experiment in all cases: log2 fold change, soluble protein after heating vs DMSO (PISA); higher = thermal stabilisation; K562 lysate, 10 uM; active = over 0.2 and 3.5 SD of the protein, either way, in both replicates (recomputed)
erlotinib = compound: C#Cc1cccc(Nc2ncnc3cc(OCCOC)c(OCCOC)cc23)c1 [erlotinib]
Summary of the method: (§1)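 Soluble protein was defined as the supernatant remaining after 21,000xg for 90 min, following pooling of heated aliquots and adjustment to 0.5% NP-40 at 4°C. Before that, crude K562 extract at 1 mg/mL protein in PBS pH 7.4 with 1 mM MgCl2 was treated with 10 μM compound for 30 min and heated for 3 min across 48°C-58°C. Quantification used TMTpro 16plex LC-MS/MS with channel sums equalised, and values are log-two fold changes in thermal stability relative to solvent controls from duplicates.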

[1] = compound: C1=CC(=CC=C1C2=NC3=C(N2)C=C(C=C3)C(=O)N)OC4=CC=C(C=C4)Cl
Summary of the method: as §1

[2] = compound: C1=CC2=NC=CN=C2C=C1/C=C/3\C(=O)NC(=O)S3
Summary of the method: as §1

[3] = compound: C1=CC=C(C=C1)C2=NC(=C(N2)C3=CC=NC=C3)C4=CC(=C(C=C4)Cl)O
Summary of the method: as §1

IRAK-1-4 Inhibitor I = compound: C1COCCN1CCN2C3=CC=CC=C3N=C2NC(=O)C4=CC(=CC=C4)[N+](=O)[O-] [IRAK-1-4 Inhibitor I]
Summary of the method: as §1

ibrutinib = compound: C=CC(=O)N1CCC[C@@H](n2nc(-c3ccc(Oc4ccccc4)cc3)c3c(N)ncnc32)C1 [ibrutinib]
Summary of the method: as §1

[4] = compound: CC(=O)c1cnc2ccc(-c3cc(Cl)c(O)c(Cl)c3)nc2c1N[C@H]1CC[C@H](CN(C)C)CC1
Summary of the method: as §1

ralimetinib = compound: CC(C)(C)Cn1c(N)nc2ccc(-c3[nH]c(C(C)(C)C)nc3-c3ccc(F)cc3)nc21 [ralimetinib]
Summary of the method: as §1

[5] = compound: CC(C)(O)CC(=O)NCCn1ccc2ncnc(Nc3ccc(Oc4cccc(C(F)(F)F)c4)c(Cl)c3)c21
Summary of the method: as §1

[6] = compound: CC(C)C1=C2N=C(C=C(N2N=C1)NCC3=CC=CC=C3)NCCCCCCN
Summary of the method: as §1

[7] = compound: CC1=C(C(CC(=O)N1)C2=CC=C(C=C2)C(F)(F)F)C(=O)NC3=C(C=C4C(=C3)C=NN4)F
Summary of the method: as §1

[8] = compound: CC1=C(C=C(C=C1)NC(=O)C2=CC(=CC=C2)C(C)(C)C#N)NC3=CC4=C(C=C3)N=CN(C4=O)C
Summary of the method: as §1

[9] = compound: CC1=C(C=C(C=C1)NC(=O)C2=CC(=CC=C2)N(C)C)NC(=O)C3=CC=C(C=C3)O
Summary of the method: as §1

[10] = compound: CC1=CC=C(C=C1)SC2=C3C=C(SC3=CN=C2)C(=O)N
Summary of the method: as §1

[11] = compound: C/C(=N\NC(=O)C1=CC(=CC=C1)S(=O)(=O)N2CCOCC2)/C3=C(C=CC(=C3)Cl)O
Summary of the method: as §1

[12] = compound: C1=CC2=C(C=CC(=C2)/C=C\3/C(=O)NC(=NCC4=CC=CS4)S3)N=C1
Summary of the method: as §1

[13] = compound: C1=CC=C2C(=C1)C3=NNC4=CC=CC(=C43)C2=O
Summary of the method: as §1

[14] = compound: C1CCN(C1)C(=O)NC2=CC=CC(=C2)NC3=NC=C(C(=N3)NCCC4=CN=CN4)Br
Summary of the method: as §1

[15] = compound: C1CN(CCC1(CC2=CC=C(C=C2)Cl)N)C3=NC=NC4=C3C=CN4
Summary of the method: as §1

[16] = compound: CC1=C(C2=C(C=C1)C(=O)C3=CC=CC=C3N2CCCN)C
Summary of the method: as §1

Row | Target | log2 fold change (erlotinib) | log2 fold change [1] | log2 fold change [2] | log2 fold change [3] | log2 fold change (IRAK-1-4 Inhibitor I) | log2 fold change (ibrutinib) | log2 fold change [4] | log2 fold change (ralimetinib) | log2 fold change [5] | log2 fold change [6] | log2 fold change [7] | log2 fold change [8] | log2 fold change [9] | log2 fold change [10] | log2 fold change [11] | log2 fold change [12] | log2 fold change [13] | log2 fold change [14] | log2 fold change [15] | log2 fold change [16]
1 | LSM14B (UniProt Q9BX40) | inactive: -0.053 | inactive: -0.006 | inactive: 0.031 | inactive: -0.017 | inactive: 0.083 | inactive: -0.139 | inactive: 0.029 | inactive: -0.112 | inactive: -0.033 | inactive: 0.033 | inactive: 0.013 | inactive: 0.09 | inactive: -0.034 | inactive: 0.008 | – | – | – | – | – | –
2 | LRIF1 (UniProt Q5T3J3) | inactive: -0.015 | inactive: 0.046 | – | inactive: 0 | inactive: -0.02 | – | inactive: -0.088 | inactive: -0.09 | inactive: -0.055 | inactive: 0.089 | inactive: -0.143 | inactive: -0.031 | inactive: 0.046 | inactive: -0.197 | inactive: 0.11 | active: -0.301 | inactive: 0.1 | inactive: -0.031 | inactive: -0.009 | inactive: -0.044
3 | LRRC8D (UniProt Q7L1W4) | inactive: 0.003 | inactive: -0.03 | inactive: 0.035 | inactive: -0.047 | inactive: 0.037 | inactive: -0.001 | inactive: 0.035 | inactive: 0.021 | inactive: -0.008 | inactive: 0.001 | inactive: -0.005 | inactive: -0.011 | inactive: -0.003 | inactive: -0.019 | inactive: 0.066 | inactive: -0.039 | inactive: -0.04 | inactive: -0.022 | inactive: 0.074 | inactive: 0.026
4 | LRRCC1 (UniProt Q9C099) | inactive: 0.089 | inactive: 0.092 | – | inactive: 0.031 | inactive: 0.123 | – | inactive: -0.12 | inactive: -0.237 | inactive: -0.225 | inactive: 0.031 | inactive: -0.036 | inactive: 0.135 | inactive: -0.012 | inactive: 0.06 | inactive: -0.022 | inactive: -0.012 | inactive: -0.085 | inactive: -0.019 | inactive: 0.054 | inactive: -0.097
5 | LPCAT3 (UniProt Q6P1A2) | inactive: -0.025 | inactive: -0.288 | inactive: 0.016 | inactive: -0.001 | inactive: 0.006 | inactive: -0.009 | inactive: -0.005 | inactive: 0.062 | inactive: -0.153 | inactive: -0.073 | inactive: -0.007 | inactive: 0.371 | inactive: -0.035 | inactive: -0.022 | inactive: 0.169 | inactive: 0.078 | inactive: -0.017 | inactive: -0.109 | inactive: 0.002 | inactive: 0.015
6 | LINGO1 (UniProt Q96FE5) | inactive: 0.036 | inactive: -0.079 | inactive: -0.014 | inactive: 0.018 | inactive: 0.033 | inactive: -0.011 | inactive: -0.037 | inactive: -0.008 | inactive: -0.07 | inactive: -0.046 | – | – | inactive: -0.037 | inactive: -0.001 | inactive: 0.09 | inactive: -0.016 | inactive: -0.026 | inactive: 0.034 | inactive: 0.019 | inactive: -0.001
7 | LRIG2 (UniProt O94898) | inactive: -0.065 | inactive: 0.085 | – | inactive: 0.046 | inactive: -0.032 | – | inactive: 0.236 | inactive: 0.121 | inactive: -0.001 | inactive: 0.006 | inactive: -0.079 | inactive: 0.07 | inactive: -0.017 | inactive: -0.053 | inactive: -0.051 | inactive: -0.055 | inactive: -0.094 | inactive: -0.125 | inactive: -0.056 | inactive: 0.067
8 | LSM11 (UniProt P83369) | inactive: 0.104 | inactive: 0.065 | – | – | – | – | – | – | – | inactive: 0.004 | – | inactive: -0.161 | – | – | inactive: 0.262 | inactive: -0.056 | inactive: -0.044 | inactive: -0.029 | inactive: -0.055 | inactive: -0.198
9 | LEG1 (UniProt Q6P5S2) | inactive: 0.017 | inactive: -0.062 | inactive: -0.062 | inactive: -0.254 | inactive: -0.178 | inactive: -0.081 | inactive: -0.048 | inactive: 0.049 | inactive: 0.06 | inactive: -0.129 | inactive: 0.031 | inactive: 0.124 | inactive: -0.045 | inactive: -0.004 | – | – | – | inactive: -0.171 | inactive: 0.111 | inactive: 0.1
